In PubChem BioAssay AID504467 (National Center for Advancing Translational Sciences (NCATS), 2011):
About 7,700 (2.3%) of roughly 330,000 compounds were called active. The inconclusive results got no clear call from the source; some entries with a clear call stand among them for comparison. Calls follow the shape of the dose curve; as a rule, active = well fitted inhibition curve with a large enough effect; inconclusive = small, poorly fitted or top-dose-only effect, or effect the other way; inactive = flat fitted curve, though single readings scatter. Potencies beside an inconclusive call are fits to weak or partial responses and may not hold up.

Assay: qHTS screen for small molecules that inhibit ELG1-dependent DNA repair in human embryonic kidney (HEK293T) cells expressing luciferase-tagged ELG1; also: nearly all actives have a fitted effect of over 55% in size
Conditions: HEK293T ELG1-luciferase reporter, luminescence, 16 h, DNA damage induced by 5-fluorouridine; series mostly up to 46.1 µM
Method in brief: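 5-Fluorouridine DNA damage + compound/DMSO, 2,000 cells/well, 16 h, 37 °C/5% CO2. ONE-Glo, 30 min RT, luminescence. Readout = decrease in reporter signal.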
Potency is read from the fitted curve at half-maximal effect.

| Compound | Potency |
| --- | --- |
| COC(=O)c1cc(Br)ccc1-c1ccc(/C=N/n2nnnc2N)o1 | inconclusive: 20.6 µM [inhibitor, single point] |
| CCOC(=O)C1=C(C)C(c2ccccc2)NC(=S)N1 (stereo not drawn) | inactive |
| Cc1cnc2c(c1)C(=O)c1ccccc1-2 | inactive |
| CC(=O)N/C(N)=N/c1nc2cc([N+](=O)[O-])ccc2o1 | inconclusive: 9.2 µM [activator, partial curve] |
| CCC(C)c1ccccc1OCCCN(C)Cc1ccccc1 (stereo not drawn) | inactive |
| O=C(NCC1CCCO1)c1ccc2c(c1)N(Cc1ccc(F)cc1)CCS2 (stereo not drawn) | inactive |
| CCC1CCCCN1CCCNC(=O)c1ccc(N2CCOCC2)c(NS(=O)(=O)c2ccc(OC)cc2)c1 (stereo not drawn) | inconclusive: 23.1 µM [activator, single point] |
| CCOc1ccc(C(=O)NC(=S)Nc2ccc(N3CCC(C)CC3)cc2)cc1[N+](=O)[O-] | inconclusive: 1.64 µM [inhibitor, partial curve, poor fit] |
| CCOC(=O)c1ccc(NC(=O)CN(c2ccc(C)cc2)S(=O)(=O)c2c(C)nn(C)c2C)cc1 | inconclusive: 16.4 µM [inhibitor, partial curve] |
| Cn1ncc2c(Nc3ccccc3Cl)nc(Nc3ccccc3Cl)nc21 | inconclusive: 5.8 µM [inhibitor, full curve] |
| CC(C)(C)c1ccc(OCCC(=O)Nc2cccc(S(=O)(=O)NC3=NCCCCC3)c2)cc1 | inconclusive: 13 µM [inhibitor, partial curve, poor fit] |
| Cc1cc(=O)[nH]c(N/N=C/c2ccc3c(c2)OCCO3)n1 | inconclusive: 14.6 µM [activator, partial curve] |
| COc1cccc(NC(=O)Nc2ccc3c(c2)nc(C)n3C)c1 | inconclusive: 2.91 µM [activator, full curve] |
| COc1ccc(CNc2nc3ccccc3n2Cc2ccc(Cl)cc2)cc1OC | inactive |
| O=C1c2[nH]nc(-c3ccccc3O)c2C(c2ccc(F)cc2)N1CC1CCCO1 (stereo not drawn) | inactive |
| O=C(COC(=O)/C=C/c1ccc(S(=O)(=O)N2CCOCC2)cc1)Nc1ccc(F)c(F)c1F | inactive |
| CCc1nnc(NC(=O)c2c(O)c3c([nH]c2=O)CCCC3)s1 | inconclusive: 5.17 µM [activator, full curve] |
| Cc1sc2ncnc(N3CCCC(C)C3)c2c1C (stereo not drawn) | inconclusive: 20.6 µM [inhibitor, partial curve] |
| COc1ccccc1N1C(=S)N=C(Nc2c(C)cccc2C)C12CCCC2 | inactive |
| Cc1cccc(NC(=O)CSc2nc3ccc(NC(=O)CSc4nnnn4-c4ccccc4)cc3s2)c1C | inconclusive: 2.59 µM [inhibitor, full curve] |
| CC(C)CCSc1nc2[nH]ncc2c(=O)[nH]1 | inconclusive: 29.1 µM [activator, single point] |
| Cc1ccccc1C(=O)NC(=S)Nc1ncccn1 | inconclusive: 14.6 µM [activator, partial curve] |
| CCC(CO)Oc1cc(NCc2ccccc2)c2ncn(C(C)C)c2c1 (stereo not drawn) | inactive |

| Compound | Potency |
| --- | --- |
| CCOc1ccc(N2C(=O)CS/C2=N/NC(=O)COc2ccc3ccccc3c2)cc1 | inconclusive: 35.5 µM [inhibitor, single point] |
| Cc1c(C(=O)OCC(=O)Nc2ccc(S(N)(=O)=O)cc2)oc2c1ccc1ccccc12 | inconclusive: 3.26 µM [inhibitor, single point] |
| Cc1ccc(O)c([C@H](CCN(C(C)C)C(C)C)c2ccccc2)c1 | inactive |
| Cc1ccc2sc(NC(=O)c3cccc(N4C(=O)CCC4=O)c3)nc2c1C | inconclusive: 29.1 µM [activator, single point] |
| CCNC(=O)CC1C(=O)N(c2ccccc2)C(=O)N1Cc1ccc(OC)cc1 (stereo not drawn) | inconclusive: 29.1 µM [activator, single point] |
| CCCc1cc(=O)oc2c(C)c(OC(C)C(=O)NCCN3CCOCC3)ccc12 (stereo not drawn) | inactive |
| Cc1nccn1-c1cc(C(C)(C)C)nc2c(-c3ccccc3)cnn12 | inconclusive: 16.4 µM [activator, partial curve, poor fit] |
| CC(C)(C)CC(=O)Nc1cc2c3c(c1)CCN3C(=O)CC2 | inconclusive: 8.2 µM [activator, partial curve] |
| COc1ccc2c(c1)[C@H]1[C@H](CO2)[C@H](c2ccccc2)[C@]2(C)C(=O)Nc3ccccc3C(=O)N12 | inconclusive: 20 µM [inhibitor, single point] |
| CCc1ccc(-c2nc(CN3CCC(C(=O)N4CCN(c5ccccc5)CC4)CC3)c(C)o2)cc1 | inconclusive: 16.4 µM [inhibitor, partial curve] |
| CCCCNC(=O)Cc1ccc(C)cc1 | inconclusive: 29.1 µM [activator, single point] |
| C=CCN(CC=C)C(=S)NC(=O)/C=C/c1ccc(C)cc1 | inactive |
| Cc1ccc(Oc2ncc(CN3CCOCC3)s2)cc1 | inconclusive: 20.6 µM [activator, partial curve] |
| Cc1ccc(NC(=O)C2CCCN(S(=O)(=O)c3c(C)noc3/C=C/N(C)C)C2)c(C)c1 (stereo not drawn) | inactive |
| CCOc1ccc(N(CC(=O)Nc2ccc(C)cc2)S(=O)(=O)c2c(C)noc2C)cc1 | inconclusive: 18.4 µM [inhibitor, partial curve] |
| O=C(NCCNC(=O)c1cc(Cl)ccc1Cl)c1ccccn1 | inactive |
| O=C(Nc1ccc(S(=O)(=O)N2CCc3ccccc3C2)cc1)c1ccccc1 | inconclusive: 25.9 µM [inhibitor, partial curve] |
| O=C(NCc1ccccc1Cl)c1cccc(NC(=O)c2ccccc2)c1 | inconclusive: 20.6 µM [inhibitor, partial curve] |
| COc1cnc(-c2ccccn2)nc1Sc1ccccc1 | inconclusive: 18.3 µM [inhibitor, single point] |
| N#C/C(=C\c1cc(Cl)ccc1O)C(=O)NC1CCCCC1 | inconclusive: 25.9 µM [activator, single point] |
| CSc1cccc(NC(=O)/C=C/c2ccc(Cl)cc2)c1 | inconclusive: 18.4 µM [activator, single point] |
| Cc1ccc(C(=O)n2cnnc2N)cc1 | inconclusive: 16.4 µM [activator, partial curve, poor fit] |
| O=C(NC(=S)Nc1cccnc1Cl)c1ccc(F)cc1 | inconclusive: 18.3 µM [activator, partial curve] |

Some of these compounds in order of length of the SMILES, rising:

| Compound | Potency |
| --- | --- |
| N#C/C(=C\c1cc(Cl)ccc1O)C(=O)NC1CCCCC1 | inconclusive: 25.9 µM [activator, single point] |
| CCCc1cc(=O)oc2c(C)c(OC(C)C(=O)NCCN3CCOCC3)ccc12 (stereo not drawn) | inactive |
| CCOc1ccc(N(CC(=O)Nc2ccc(C)cc2)S(=O)(=O)c2c(C)noc2C)cc1 | inconclusive: 18.4 µM [inhibitor, partial curve] |

Next part:

| Compound | Potency |
| --- | --- |
| Cc1ccc(NC(=O)c2ccco2)c([N+](=O)[O-])c1 | inconclusive: 29.1 µM [activator, single point] |
| O=[N+]([O-])c1cc(S(=O)(=O)C(F)(F)F)ccc1NCC1CCCO1 (stereo not drawn) | inactive |
| COc1ccc(C(=O)CSc2nnc(-c3cccs3)n2-c2ccccc2)cc1 | inconclusive: 18.4 µM [activator, partial curve, poor fit] |
| CCOC(=O)/C(C#N)=C/c1cc2ccc(C)cc2nc1Cl | inconclusive: 25.9 µM [activator, single point] |
| Cc1nonc1NC(=O)c1oc2ccc(F)cc2c1C | inconclusive: 10.3 µM [activator, partial curve] |
| Fc1ccc(NC(=S)Nc2ccc(F)c(Cl)c2)cc1Cl | inconclusive: 23.1 µM [inhibitor, partial curve] |
| N#Cc1nc(-c2ccc(Cl)cc2)oc1NCCc1ccccn1 | inconclusive: 18.4 µM [activator, partial curve] |
| CCn1c(C)nc2cc(N)ccc21 | inconclusive: 23.1 µM [activator, partial curve, poor fit] |
| CN(C)/N=C/c1cc(Cl)cc([N+](=O)[O-])c1O | inactive |
| CCCCOc1cccc(C(=O)Nc2ccc(NC(=O)c3cccs3)cc2)c1 | inactive |
| O=C(Nc1ccncc1)c1ccc(Cl)c(Cl)c1 | inactive |
| Cc1cc(OCc2cc(C(=O)N(C)C3CCOC3)no2)cc(C)c1Cl (stereo not drawn) | inconclusive: 5.17 µM [activator, partial curve] |
| O=C(NCc1ccc(F)cc1)c1ccc(N2CCc3ccccc32)c([N+](=O)[O-])c1 | inconclusive: 23.1 µM [inhibitor, partial curve, poor fit] |
| Cc1ccc(O)c(C(=O)c2cc(C#N)c(=O)n(CC3CCCO3)c2)c1 (stereo not drawn) | inconclusive: 8.2 µM [inhibitor, partial curve, poor fit] |
| COc1cccc(-n2nnnc2SCC(=O)Nc2nc3c(s2)CCCC3)c1 | inconclusive: 18.4 µM [inhibitor, single point] |
| COc1cc(-c2nn3c(-c4cccnc4)nnc3s2)cc(OC)c1OC | inconclusive: 13 µM [inhibitor, partial curve] |
| COc1cc(O)c2c(=O)c(-c3ccc(O[C@@H]4O[C@H](CO)[C@@H](O)[C@H](O)[C@H]4O)cc3)coc2c1 | inconclusive: 9.2 µM [activator, partial curve] |
| CC1=C(C(N)=O)C(c2ccccc2F)NC(=O)N1 (stereo not drawn) | inconclusive: 20.6 µM [activator, single point] |
| CCOc1ccc(S(=O)(=O)NCCC(=O)NCCc2ccc(OCC)c(OCC)c2)cc1 | inconclusive: 16.4 µM [inhibitor, single point] |
| COc1cc(/C=C2\N=C3CCCCCN3C2=O)ccc1O | inconclusive: 20.6 µM [activator, partial curve] |
| CCCSc1ccc(-c2nn(-c3ccccc3)cc2/C=C(/C#N)C(=O)N2CCOCC2)cc1 | inconclusive: 32.6 µM [inhibitor, single point] |
| Cc1nc2ccc(NC(=O)CCS(=O)(=O)c3ccc(Cl)cc3)cc2s1 | inactive |
